# PubChem BioAssay AID540276 (National Center for Advancing Translational Sciences (NCATS), 2011)
# The campaign covered roughly 300,000 compounds. About 5,400 (1.8%) were called active. This list was built around the results that the source calls inconclusive (neither active nor inactive); the mix of calls is not that of the screen. Calls come from the whole dose curve; tested in HEK293 cells. Potencies of inconclusive entries are doubtful fits and often do not repeat.
# Assay: qHTS for inhibitors of binding or entry into cells for Marburg Virus
# Conditions: Marburg virus pseudotyped entry inhibition, cell reporter; activity change, negative = inhibition: at 37.8 µM (top of the series) unless noted
# % is set by controls: 0 for no effect and ±100 for the full control effect; potency is the fitted concentration of half-maximal effect.
Structure (SMILES),Potency,"activity change, negative = inhibition"
COc1ccc(CC(=O)Nc2nnc(C(C)(C)C)s2)cc1OC,"inconclusive: 11.2 µM [inhibitor, partial curve, poor fit]",–
Cc1cc(NC(=O)CSc2nnnn2C)n(-c2ccccc2)n1,"inconclusive: 14.1 µM [inhibitor, single point]",–
COc1cccc(NC(=O)c2oc3ccccc3c2NC(=O)Cc2cccc(C)c2)c1,–,inactive: -26.8% [at 46.1 µM]
CC1CCN(S(=O)(=O)c2ccc3ncn(CC(=O)N(C)C4CCCCC4)c(=O)c3c2)CC1,–,inconclusive: 65.3% [activator] [at 46.1 µM]
CCc1cccc(NC(=O)c2coc(=O)c3ccccc23)c1,"inconclusive: 3.55 µM [inhibitor, partial curve, poor fit]",–
COc1ccccc1-c1cnn2c(NC3CCCC3)cc(C)nc12,"inconclusive: 6.31 µM [activator, single point]",–
CC(Oc1ccc(Cl)cc1)C(=O)Nc1ccc(S(=O)(=O)Nc2nccs2)cc1 (stereo not given),"inconclusive: 35.5 µM [inhibitor, single point]",–
CCN(CC)CCCN(C(C)=O)c1nc(-c2cc(OC)ccc2OC)cs1,"inconclusive: 18.3 µM [inhibitor, single point]",–
Cc1ccc(C)c(CN2C(=O)C(O)(c3c[nH]c4ccccc34)c3ccccc32)c1 (stereo not given),"inconclusive: 11.2 µM [inhibitor, single point]",–
COc1cccc(N2CCN(C(=O)CCCCCNc3nc(=S)[nH]c4ccccc34)CC2)c1,"inconclusive: 35.5 µM [inhibitor, single point]",–
CC(C)C1Nc2ccc(S(N)(=O)=O)cc2C2C=CCC21 (stereo not given),inactive,–
Cc1ccc(NC2=NCC(=O)N2C2CCCC2)cc1,–,inactive: 1.85% [at 46.1 µM]
CC1=NNC(=O)C1CCC(=O)N/N=C/c1ccccc1 (stereo not given),–,inactive: -2.75%
COc1ccc(/C(C)=N/NC(=O)c2ccc(CSc3nncn3C)cc2)cc1,"inconclusive: 5.62 µM [activator, single point]",–
CCOc1ccc(Nc2nc(Nc3ccc(OCC)cc3)nc(N3CCOCC3)n2)cc1,"inconclusive: 1 µM [inhibitor, partial curve, poor fit]",–
O=C(COc1ccc(S(=O)(=O)NC2CCCCC2)cc1Cl)N1CCN(c2ccccc2)CC1,"inconclusive: 20.6 µM [inhibitor, single point]",–
CCc1cc2c(Sc3nc4ccccc4s3)ncnc2s1,–,inactive: -11.1%
COc1ccc(C(=O)NCc2ccc(C)cc2)cc1S(=O)(=O)N1CCCc2ccccc21,"inconclusive: 29.1 µM [inhibitor, single point]",–
CCSc1nnc2nc3[nH]c4c(C)cccc4c3nn12,"inconclusive: 35.5 µM [activator, single point]",–
CCOP(=O)(OCC)C(Nc1ccccc1)c1cc(OC)ccc1OC (stereo not given),"inconclusive: 3.55 µM [activator, single point]",–
COc1ccccc1C1C(C#N)=C(N)Oc2c1c(-c1ccccc1)nn2-c1ccccc1 (stereo not given),"inconclusive: 1.26 µM [activator, single point]",–
Cn1c(=O)c2ccccc2n2c(=S)[nH]nc12,–,inactive: 6.18% [at 46.1 µM]

Structure (SMILES),Potency,"activity change, negative = inhibition"
CCc1cc2c(=O)c(-c3ccc4c(c3)OCCO4)coc2c(CN2CCCCC2C)c1O (stereo not given),"inconclusive: 35.5 µM [inhibitor, single point]",–
Nc1cc(C(=O)OCC(=O)N2CCN(C(=O)COC(=O)c3ccc(Cl)c(N)c3)CC2)ccc1Cl,–,inactive: -15.2%
COc1cccc(C(=O)NNC(=O)c2cccc3ccccc23)c1,–,inactive: -8.7%
COc1ccc(/C=N/NC(=S)Nc2cc(S(=O)(=O)N3CCOCC3)ccc2N2CCOCC2)cc1O,"inconclusive: 11.2 µM [inhibitor, partial curve, poor fit]",–
CC1(C)C[C@@H]2C[C@@](C)(CN2C(=O)c2cc(COc3cccc(C(F)(F)F)c3)on2)C1,"inconclusive: 11.2 µM [inhibitor, partial curve, poor fit]",–
Cc1ccc(S(=O)(=O)N2CCN(C(=O)c3ccc4ccccc4n3)CC2)c(C)c1,"inconclusive: 14.1 µM [activator, single point]",–
c1ccc(CSC2=NCCCN2)cc1,"inconclusive: 4.11 µM [inhibitor, partial curve, poor fit]",–
COc1ccc(OCC(=O)N2c3ccccc3CC2C)c([N+](=O)[O-])c1 (stereo not given),"inconclusive: 12.6 µM [activator, partial curve, poor fit]",–
Cc1cccc(C)c1NC(=O)CN(C)CC(=O)Nc1sc2c(c1C(N)=O)CCC2,"inconclusive: 7.94 µM [inhibitor, partial curve, poor fit]",–
O=C1CC(c2ccccc2)=Nc2ccc(Br)cc2N1,"inconclusive: 8.91 µM [inhibitor, partial curve]",–
CCOC(=O)N/N=C/c1cn(CCCOc2ccccc2)c2ccccc12,"inconclusive: 29.1 µM [inhibitor, single point]",–
CCS(=O)(=O)c1nc(S(=O)(=O)c2ccc(C)cc2)c(NCc2ccccc2Cl)s1,"inconclusive: 35.5 µM [inhibitor, single point]",–
Cc1ccnc(NC(=O)c2oc3ccccc3c2C)c1,"inconclusive: 8.91 µM [inhibitor, partial curve, poor fit]",–
O=C(N/N=C/c1ccc([N+](=O)[O-])cc1)c1[nH]ncc1Br,–,inactive: 3.03% [at 14.2 µM]
Cc1ccc(Cl)c(OCCCN(C)Cc2ccccc2)c1,"inconclusive: 22.4 µM [inhibitor, partial curve, poor fit]",–
CN1CCC(OC(=O)c2ccc(Br)cc2)CC1,–,inactive: 0.994%
COc1ccccc1N(C)S(=O)(=O)c1ccc(C(=O)N2CCC2)cc1,"inconclusive: 1.41 µM [inhibitor, full curve]",–
CNc1c(NS(=O)(=O)c2ccc(OC)c(Cl)c2)c(=O)oc2ccccc12,"inconclusive: 2.51 µM [inhibitor, full curve, poor fit]",–
COc1cccc(NC(=O)Nc2nc(SC)ns2)c1,"inconclusive: 35.5 µM [inhibitor, single point]",–
C=CCOc1c(Br)cc(/C=N/NC(=O)Cc2ccc(C(F)(F)F)cc2[N+](=O)[O-])cc1OC,"inconclusive: 8.91 µM [inhibitor, partial curve, poor fit]",–
COc1ccc(S(=O)(=O)N2c3cc(C)ccc3OCC2C(C)(C)C)cc1 (stereo not given),"inconclusive: 9.2 µM [inhibitor, partial curve, poor fit]",–
Cc1cc(NCCCCO)n2c(nc3ccccc32)c1C#N,–,inactive: 9.34%

# Full records as entered above. Values in the order: Potency	activity change, negative = inhibition
# CNc1c(NS(=O)(=O)c2ccc(OC)c(Cl)c2)c(=O)oc2ccccc12 is listed with inconclusive: 2.51 µM [inhibitor, full curve, poor fit]	–
# O=C(N/N=C/c1ccc([N+](=O)[O-])cc1)c1[nH]ncc1Br is listed with –	inactive: 3.03% [at 14.2 µM]
# COc1ccc(/C=N/NC(=S)Nc2cc(S(=O)(=O)N3CCOCC3)ccc2N2CCOCC2)cc1O is listed with inconclusive: 11.2 µM [inhibitor, partial curve, poor fit]	–
# Cc1ccc(S(=O)(=O)N2CCN(C(=O)c3ccc4ccccc4n3)CC2)c(C)c1 is listed with inconclusive: 14.1 µM [activator, single point]	–

# (further entries)

Structure (SMILES),Potency,"activity change, negative = inhibition"
Cc1cnc(CNC(=O)CC2C(=O)NCCN2Cc2cccc(F)c2F)cn1 (stereo not given),"inconclusive: 31.6 µM [activator, single point]",–
COc1ccc(OC)c(C(c2nnnn2Cc2ccccc2)N2CCC(C(N)=O)CC2)c1 (stereo not given),–,inactive: -16.8%
CCOC1(OCC)C(c2ccc(Cl)cc2)C(C#N)(C#N)C1(OCC)OCC (stereo not given),"inconclusive: 14.6 µM [inhibitor, partial curve, poor fit]",–
COc1ccc(N2CCN(C(CNC(=O)COc3ccccc3)c3ccco3)CC2)cc1 (stereo not given),"inconclusive: 11.2 µM [inhibitor, partial curve, poor fit]",–
Cc1cc(NC(=O)CN(c2cccc(C)c2C)S(=O)(=O)c2ccccc2)ccc1Br,"inconclusive: 14.1 µM [inhibitor, single point]",–
CCc1cccc2c(=O)c(C(=O)N3CCCCCC3)c[nH]c12,"inconclusive: 5.62 µM [activator, full curve, poor fit]",–
CCCSCCCNC(=O)CN1C(=O)COc2ccc(S(=O)(=O)N3CCCCCC3)cc21,–,inactive: -0.0234% [at 46.1 µM]
O=C(CC1(O)C(=O)Nc2cc(Cl)cc(Cl)c21)c1ccncc1 (stereo not given),"inconclusive: 29.1 µM [inhibitor, single point]",–
Cc1cc(C)n(-c2nc3ccccc3c(=O)n2OCC(=O)OCc2ccccc2)n1,"inconclusive: 35.5 µM [inhibitor, single point]",–
CCN1CCN(C(=O)c2ccc3c(c2)N(Cc2cc(C)ccc2C)C(=O)c2ccccc2S3(=O)=O)CC1,"inconclusive: 11.2 µM [inhibitor, single point]",–
CN1C(=O)/C(=N/OC(=O)c2ccccc2Br)c2ccccc21,"inconclusive: 3.66 µM [activator, partial curve, poor fit]",–
Cc1ccc2[nH]c(C(F)(F)F)cc(=O)c2c1,"inconclusive: 35.5 µM [inhibitor, single point]",–
c1cncc(-c2nc(Oc3ccc(-c4nnco4)cc3)c3c4c(sc3n2)CCCC4)c1,–,inactive: 4.81%
O=[N+]([O-])c1ccc(C[n+]2cccc3ccc4cccnc4c32)cc1,"inconclusive: 3.98 µM [inhibitor, single point]",–
Cc1ccc(OCC(=O)Nc2ccc(-c3nc4ccc(C)cc4o3)cc2)cc1,"inconclusive: 1 µM [activator, full curve, poor fit]",–
CCOc1ccc(C(=O)Nc2ccc3nc(SCC(=O)N4CCOCC4)sc3c2)cc1,–,inactive: -2.3% [at 46.1 µM]
O=C(NCc1ccco1)c1cc(-c2ccc(F)cc2)on1,"inconclusive: 2.91 µM [activator, full curve, poor fit]",–
COc1ccccc1C(CNC(=O)CSc1ccc2ccccc2c1)N(C)C (stereo not given),"inconclusive: 12.6 µM [inhibitor, partial curve, poor fit]",–
COc1ccc(NS(=O)(=O)c2ccc(C)c(NC(=O)CNC(=O)c3ccco3)c2)cc1,–,inactive: 11.2%
Cn1ncc(N=Cc2ccccc2)c1C(N)=O,–,inactive: -13.5%
CCOC(=O)c1c(C)c(C(=O)NCc2cccs2)c(C)n1C,"inconclusive: 9.2 µM [activator, partial curve, poor fit]",–
